# Experimental data: the supplement of paper PMC8728848
# Some of the results follow.
# B1: HA-61200 (Pseudomonas aeruginosa), Q02SP8_PSEAB (protein)
# chain: MNKCYALVWNVSQGCWNVVSEGSRRRGKPAGAKAAIASVLALLGATALAPAYALPSGGTVVGGSANGEIHLSGGNSLSVNQKVDKLIANWDSFSVAAGERVIFNQPSSSSIALNRVIGTKASDIQGRIDANGQVFLVNPNGVLFGRGAQVNVGGLVASTLDITDAEFNGNSSRYRFTGPSTNGVLNHGGAITAAEGGSIALLGAQVDNRGTVLAQMGGVGLGAGSDLTLNFDGNKLLDIRVDAGVANALASNGGLLKADGGRVLMAARTANALLNTVVNSQGAIEARSLRGKNGRIVLDG
# Assays:
# Assay in all cases: glycan array binding signal (z-score within array); higher = stronger binding
# Settings in all cases: glycan notation: IUPAC condensed, linker removed
# [1] = target: Neu5Ac(a2-3)Gal(b1-4)GlcNAc(b1-3)[Neu5Ac(a2-3)Gal(b1-4)GlcNAc(b1-6)]GalNAc
# Outline: (§1)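 Glycan array binding is given as a within-array Z-score, which can be read as non-binding when negative. The arrays, 3228 of them, came from the Consortium for Functional Glycomics database and were retained only where the protein sequence was available. Z-scores were averaged across arrays of the same protein sequence at different concentrations or buffers and across linkers.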
# [2] = target: Neu5Ac(a2-3)Gal(b1-4)GlcNAc(b1-6)GalNAc
# Outline: as §1
# [3] = target: Neu5Ac(a2-3)Gal(b1-4)GlcNAc(b1-6)[Gal(b1-3)]GalNAc
# Outline: as §1
# [4] = target: Neu5Ac(a2-3)Gal(b1-4)GlcNAc(b1-6)[Neu5Ac(a2-3)Gal(b1-3)]GalNAc
# Outline: as §1
# [5] = target: Neu5Ac(a2-3)Gal(b1-4)GlcNAc6S
# Outline: as §1
# [6] = target: Neu5Ac(a2-3)Gal(b1-4)[Fuc(a1-3)]GlcNAc
# Outline: as §1
# [7] = target: Neu5Ac(a2-3)Gal(b1-4)[Fuc(a1-3)]GlcNAc(b1-2)Man
# Outline: as §1
# [8] = target: Neu5Ac(a2-3)Gal(b1-4)[Fuc(a1-3)]GlcNAc(b1-3)Gal
# Outline: as §1
# [9] = target: Neu5Ac(a2-3)Gal(b1-4)[Fuc(a1-3)]GlcNAc(b1-3)Gal(b1-4)GlcNAc
# Outline: as §1
# [10] = target: Neu5Ac(a2-3)Gal(b1-4)[Fuc(a1-3)]GlcNAc(b1-3)Gal(b1-4)[Fuc(a1-3)]GlcNAc(b1-3)Gal(b1-4)[Fuc(a1-3)]GlcNAc
# Outline: as §1
# [11] = target: Neu5Ac(a2-3)Gal(b1-4)[Fuc(a1-3)]GlcNAc(b1-3)GalNAc
# Outline: as §1
# [12] = target: Neu5Ac(a2-3)Gal(b1-4)[Fuc(a1-3)]GlcNAc(b1-6)[Gal(b1-3)]GalNAc
# Outline: as §1
# [13] = target: Neu5Ac(a2-3)Gal(b1-4)[Fuc(a1-3)]GlcNAc(b1-6)[Neu5Ac(a2-3)Gal(b1-3)]GalNAc
# Outline: as §1
# [14] = target: Neu5Ac(a2-3)Gal(b1-4)[Fuc(a1-3)]GlcNAc6S
# Outline: as §1
# [15] = target: Neu5Ac(a2-3)Gal6S(b1-4)GlcNAc
# Outline: as §1
# [16] = target: Neu5Ac(a2-3)Gal6S(b1-4)[Fuc(a1-3)]GlcNAc
# Outline: as §1
# [17] = target: Neu5Ac(a2-3)GalNAc
# Outline: as §1
# [18] = target: Neu5Ac(a2-3)GalNAc(b1-4)GlcNAc
# Outline: as §1
# [19] = target: Neu5Ac(a2-3)[GalNAc(b1-4)]Gal(b1-4)Glc
# Outline: as §1
# [20] = target: Neu5Ac(a2-3)[GalNAc(b1-4)]Gal(b1-4)GlcNAc
# Outline: as §1
# [21] = target: Neu5Ac(a2-3)[GalNAc(b1-4)]Gal(b1-4)GlcNAc(b1-3)GalNAc
# Outline: as §1
# [22] = target: Neu5Ac(a2-3)[Neu5Ac(a2-6)]GalNAc
# Outline: as §1
# [23] = target: Neu5Ac(a2-6)Gal
# Outline: as §1
# [24] = target: Neu5Ac(a2-6)Gal(b1-3)GlcNAc(b1-3)[Gal(b1-4)GlcNAc(b1-6)]Gal(b1-4)Glc
# Outline: as §1
# [25] = target: Neu5Ac(a2-6)Gal(b1-4)Glc
# Outline: as §1
# [26] = target: Neu5Ac(a2-6)Gal(b1-4)GlcNAc
# Outline: as §1
# [27] = target: Neu5Ac(a2-6)Gal(b1-4)GlcNAc(b1-2)Man
# Outline: as §1
# [28] = target: Neu5Ac(a2-6)Gal(b1-4)GlcNAc(b1-2)Man(a1-3)Man(b1-4)GlcNAc(b1-4)GlcNAc
# Outline: as §1
# [29] = target: Neu5Ac(a2-6)Gal(b1-4)GlcNAc(b1-2)Man(a1-3)[Gal(b1-4)GlcNAc(b1-2)Man(a1-6)]Man(b1-4)GlcNAc(b1-4)GlcNAc
# Outline: as §1
# [30] = target: Neu5Ac(a2-6)Gal(b1-4)GlcNAc(b1-2)Man(a1-3)[GlcNAc(b1-2)Man(a1-6)]Man(b1-4)GlcNAc(b1-4)GlcNAc
# Outline: as §1
# [31] = target: Neu5Ac(a2-6)Gal(b1-4)GlcNAc(b1-2)Man(a1-3)[GlcNAc(b1-4)][Neu5Ac(a2-6)Gal(b1-4)GlcNAc(b1-2)Man(a1-6)]Man(b1-4)GlcNAc(b1-4)GlcNAc
# Outline: as §1
# [32] = target: Neu5Ac(a2-6)Gal(b1-4)GlcNAc(b1-2)Man(a1-3)[Man(a1-6)]Man(b1-4)GlcNAc(b1-4)GlcNAc
# Outline: as §1
# [33] = target: Neu5Ac(a2-6)Gal(b1-4)GlcNAc(b1-2)Man(a1-3)[Neu5Ac(a2-3)Gal(b1-4)GlcNAc(b1-2)Man(a1-6)]Man(b1-4)GlcNAc(b1-4)GlcNAc
# Outline: as §1
# [34] = target: Neu5Ac(a2-6)Gal(b1-4)GlcNAc(b1-2)Man(a1-3)[Neu5Ac(a2-6)Gal(b1-4)GlcNAc(b1-2)Man(a1-6)]Man(b1-4)GlcNAc(b1-4)GlcNAc
# Outline: as §1
# [35] = target: Neu5Ac(a2-6)Gal(b1-4)GlcNAc(b1-2)Man(a1-3)[Neu5Ac(a2-6)Gal(b1-4)GlcNAc(b1-2)Man(a1-6)]Man(b1-4)GlcNAc(b1-4)[Fuc(a1-6)]GlcNAc
# Outline: as §1
# [36] = target: Neu5Ac(a2-6)Gal(b1-4)GlcNAc(b1-2)Man(a1-6)Man(b1-4)GlcNAc(b1-4)GlcNAc
# Outline: as §1
# [37] = target: Neu5Ac(a2-6)Gal(b1-4)GlcNAc(b1-2)Man(a1-6)[Gal(b1-4)GlcNAc(b1-2)Man(a1-3)]Man(b1-4)GlcNAc(b1-4)GlcNAc
# Outline: as §1
# [38] = target: Neu5Ac(a2-6)Gal(b1-4)GlcNAc(b1-2)Man(a1-6)[GlcNAc(b1-2)Man(a1-3)]Man(b1-4)GlcNAc(b1-4)GlcNAc
# Outline: as §1
# [39] = target: Neu5Ac(a2-6)Gal(b1-4)GlcNAc(b1-2)Man(a1-6)[Man(a1-3)]Man(b1-4)GlcNAc(b1-4)GlcNAc
# Outline: as §1
# [40] = target: Neu5Ac(a2-6)Gal(b1-4)GlcNAc(b1-2)[Neu5Ac(a2-6)Gal(b1-4)GlcNAc(b1-4)]Man(a1-3)[GlcNAc(b1-4)][Neu5Ac(a2-6)Gal(b1-4)GlcNAc(b1-2)[Neu5Ac(a2-6)Gal(b1-4)GlcNAc(b1-6)]Man(a1-6)]Man(b1-4)GlcNAc(b1-4)GlcNAc
# Outline: as §1
# [41] = target: Neu5Ac(a2-6)Gal(b1-4)GlcNAc(b1-2)[Neu5Ac(a2-6)Gal(b1-4)GlcNAc(b1-4)]Man(a1-3)[GlcNAc(b1-4)][Neu5Ac(a2-6)Gal(b1-4)GlcNAc(b1-4)Man(a1-6)]Man(b1-4)GlcNAc(b1-4)GlcNAc
# Outline: as §1
# [42] = target: Neu5Ac(a2-6)Gal(b1-4)GlcNAc(b1-2)[Neu5Ac(a2-6)Gal(b1-4)GlcNAc(b1-6)]Man(a1-6)[Neu5Ac(a2-6)Gal(b1-4)GlcNAc(b1-2)Man(a1-3)][GlcNAc(b1-4)]Man(b1-4)GlcNAc(b1-4)GlcNAc
# Outline: as §1
# [43] = target: Neu5Ac(a2-6)Gal(b1-4)GlcNAc(b1-3)Gal(b1-3)GlcNAc
# Outline: as §1
# [44] = target: Neu5Ac(a2-6)Gal(b1-4)GlcNAc(b1-3)Gal(b1-4)GlcNAc
# Outline: as §1
# [45] = target: Neu5Ac(a2-6)Gal(b1-4)GlcNAc(b1-3)Gal(b1-4)GlcNAc(b1-2)Man(a1-3)[Neu5Ac(a2-6)Gal(b1-4)GlcNAc(b1-3)Gal(b1-4)GlcNAc(b1-2)Man(a1-6)]GalNAc
# Outline: as §1
# [46] = target: Neu5Ac(a2-6)Gal(b1-4)GlcNAc(b1-3)Gal(b1-4)GlcNAc(b1-3)Gal(b1-4)GlcNAc
# Outline: as §1
binder,measurement,setting,value
B1,glycan array binding signal (z-score),[1],-0.699
same,glycan array binding signal (z-score),[2],0.552
same,glycan array binding signal (z-score),[3],-0.364
same,glycan array binding signal (z-score),[4],-1.3
same,glycan array binding signal (z-score),[5],0.028
same,glycan array binding signal (z-score),[6],-0.612
same,glycan array binding signal (z-score),[7],-0.78
same,glycan array binding signal (z-score),[8],-0.478
same,glycan array binding signal (z-score),[9],-0.195
same,glycan array binding signal (z-score),[10],-0.302
same,glycan array binding signal (z-score),[11],1.98
same,glycan array binding signal (z-score),[12],0.387
same,glycan array binding signal (z-score),[13],-0.08
same,glycan array binding signal (z-score),[14],-0.953
same,glycan array binding signal (z-score),[15],0.034
same,glycan array binding signal (z-score),[16],-1.2
same,glycan array binding signal (z-score),[17],-1.04
same,glycan array binding signal (z-score),[18],-1.46
same,glycan array binding signal (z-score),[19],-0.687
same,glycan array binding signal (z-score),[20],-0.699
same,glycan array binding signal (z-score),[21],0.724
same,glycan array binding signal (z-score),[22],0.295
same,glycan array binding signal (z-score),[23],0.101
same,glycan array binding signal (z-score),[24],-0.999
same,glycan array binding signal (z-score),[25],-0.406
same,glycan array binding signal (z-score),[26],0.84
same,glycan array binding signal (z-score),[27],-1.03
same,glycan array binding signal (z-score),[28],1.36
same,glycan array binding signal (z-score),[29],-0.339
same,glycan array binding signal (z-score),[30],-0.958
same,glycan array binding signal (z-score),[31],-0.028
same,glycan array binding signal (z-score),[32],-0.409
same,glycan array binding signal (z-score),[33],-0.204
same,glycan array binding signal (z-score),[34],-0.288
same,glycan array binding signal (z-score),[35],0.232
same,glycan array binding signal (z-score),[36],-0.365
same,glycan array binding signal (z-score),[37],0.627
same,glycan array binding signal (z-score),[38],-0.102
same,glycan array binding signal (z-score),[39],-0.453
same,glycan array binding signal (z-score),[40],-0.027
same,glycan array binding signal (z-score),[41],-0.07
same,glycan array binding signal (z-score),[42],-0.498
same,glycan array binding signal (z-score),[43],-0.904
same,glycan array binding signal (z-score),[44],0.233
same,glycan array binding signal (z-score),[45],-0.431
same,glycan array binding signal (z-score),[46],0.425

# 2 entries from above, bar-delimited:
binder | measurement | setting | value
B1 | glycan array binding signal (z-score) | [16] | -1.2
same | glycan array binding signal (z-score) | [17] | -1.04
